Data as given in PubChem BioAssay AID1053208 (Peter MacCallum Cancer Centre, 2014).
The whole screen tested about 17,000 reagents; this is a part drawn at random. Of all reagents, 788 (4.7%) got an active call. 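Calls rest on z-score classes alone; an extra cut-off of viability at most 70% of control was not applied to them.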 Unmarked entries are inactive. Reagents against one gene are numbered here. Some reagents were tested in more than one well and are listed for each. Further read-outs or replicates are left out here. No sequences are given here.

- Purpose: 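Synthetic lethal interactions between gene loss and doxorubicin in osteosarcoma cells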 (primary screen)
- Cell system: mouse osteosarcoma cells, early-passage culture from an engineered mouse model of fibroblastic bone tumour
- Knock-down reagent: siRNA pool against mouse genes, 40 nM
- Duration: about 120 h (48 h before drug, then 72 h with drug)
- Treatment: doxorubicin 100 nM for 72 h, roughly 30-40% inhibitory dose
- Read-out: 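Viability read as ATP luminescence after 72 h of 100 nM doxorubicin or none, duplicate wells averaged, scaled to non-targeting siRNA, then expressed as robust z-scores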
- Direction: viability z-score with doxorubicin: higher = more viable cells under doxorubicin; viability z-score without drug: higher = more viable cells with knock-down alone
- Active means: 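a pool counts as active when its viability z-score with doxorubicin is -2 or below and its z-score without drug lies between -2 and 2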

Gene | pool no. | combined z-score class | viability z-score with doxorubicin | viability z-score without drug
Nudt16l2 (nudix hydrolase 16 like 2) | 1 | no change with or without drug | 0 | 1.18
Clic6 (chloride intracellular channel 6) | 1 | low cell count with doxorubicin only (active) | -2.7 | -1.18
Cct6b (chaperonin containing TCP1 subunit 6B) | 1 | no change with or without drug | 1.8 | 1.85
Sel1l3 (sel-1 suppressor of lin-12-like 3 (C. elegans)) | 1 | low cell count with and without drug | -3.15 | -2.53
Elp5 (elongator acetyltransferase complex subunit 5) | 1 | no change with or without drug | 0.9 | 0.34
Nlrp4a (NLR family, pyrin domain containing 4A) | 1 | high cell count without drug only | 0.9 | 2.87
Skint7 (selection and upkeep of intraepithelial T cells 7) | 1 | no change with or without drug | -0.56 | 0.84
Slc5a3 | 1 | low cell count with doxorubicin only (active) | -2.02 | -0.51
Sort1 (sortilin 1) | 1 | no change with or without drug | 0 | 0.34
Nop58 (NOP58 ribonucleoprotein) | 1 | low cell count with and without drug | -3.93 | -5.9
Tor1aip2 (torsin A interacting protein 2) | 1 | no change with or without drug | 1.12 | -0.17
Tor1aip2 (torsin A interacting protein 2) | 2 | no change with or without drug | -0.67 | 0.84
Gnat1 (G protein subunit alpha transducin 1) | 1 | no change with or without drug | 1.35 | 1.85
Sox3 (SRY (sex determining region Y)-box 3) | 1 | no change with or without drug | -1.8 | -1.85
Or5b97 (olfactory receptor family 5 subfamily B member 97) | 1 | no change with or without drug | -0.22 | -0.17
Cald1 (caldesmon 1) | 1 | no change with or without drug | 0.22 | 0.34
Gdap1l1 | 1 | no change with or without drug | 0 | 1.18
Gkn1 (gastrokine 1) | 1 | no change with or without drug | 0.67 | 1.69
Mrgpra2b (MAS-related GPR, member A2B) | 1 | low cell count with doxorubicin only (active) | -2.02 | -1.85
Tapt1 (transmembrane anterior posterior transformation 1) | 1 | high cell count without drug only | 0.56 | 2.02
Trim41 (tripartite motif-containing 41) | 1 | no change with or without drug | 0.22 | 0.67
Cstf1 (cleavage stimulation factor, 3' pre-RNA, subunit 1) | 1 | no change with or without drug | -0.67 | -1.69
Usp29 (ubiquitin specific peptidase 29) | 1 | no change with or without drug | -1.57 | -0.84
Vegfc (vascular endothelial growth factor C) | 1 | no change with or without drug | 0.22 | 0.84
Mr1 (major histocompatibility complex, class I-related) | 1 | no change with or without drug | 0 | 0.51
Ddx25 (DEAD box helicase 25) | 1 | no change with or without drug | 0 | 0.84
Tspan12 (tetraspanin 12) | 1 | no change with or without drug | -0.22 | -0.17
Dcph1 (damage control phosphatase 1) | 1 | no change with or without drug | 1.57 | 1.18
Fbxo44 (F-box protein 44) | 1 | no change with or without drug | 1.35 | 0.51
Pole3 (polymerase (DNA directed), epsilon 3 (p17 subunit)) | 1 | no change with or without drug | 1.35 | 0.84
Nkx6-1 (NK6 homeobox 1) | 1 | no change with or without drug | 1.8 | -0.51
Fuca1 (fucosidase, alpha-L- 1, tissue) | 1 | no change with or without drug | -1.01 | -0.84
H4c8 (H4 clustered histone 8) | 1 | no change with or without drug | 1.12 | 1.01
Sigmar1 (sigma non-opioid intracellular receptor 1) | 1 | no change with or without drug | 0.45 | 1.85
H2-M10.4 (histocompatibility 2, M region locus 10.4) | 1 | no change with or without drug | 0.22 | 0.17
Cntfr (ciliary neurotrophic factor receptor) | 1 | no change with or without drug | -0.22 | 0
Kif3c (kinesin family member 3C) | 1 | no change with or without drug | -0.67 | 0
Adgrl4 (adhesion G protein-coupled receptor L4) | 1 | no change with or without drug | 1.57 | -0.17
Ca1 (carbonic anhydrase 1) | 1 | no change with or without drug | -0.79 | -0.51
Dtymk (deoxythymidylate kinase) | 1 | no change with or without drug | -0.34 | -1.01
Tfcp2l1 (transcription factor CP2-like 1) | 1 | no change with or without drug | 0.9 | 1.69
Glrx3 (glutaredoxin 3) | 1 | no change with or without drug | 1.46 | 0.67
Tktl2 (transketolase-like 2) | 1 | no change with or without drug | 0 | -0.67
Tagln2 (transgelin 2) | 1 | no change with or without drug | 0 | -0.67
Stk40 (serine/threonine kinase 40) | 1 | no change with or without drug | -0.34 | -1.18
Stk40 (serine/threonine kinase 40) | 1 | no change with or without drug | -0.56 | 0.51
Tll2 (tolloid-like 2) | 1 | no change with or without drug | 0.22 | 0
Dcx (doublecortin) | 1 | no change with or without drug | 1.8 | 1.52
Strbp (spermatid perinuclear RNA binding protein) | 1 | no change with or without drug | -0.45 | -0.17
Strbp (spermatid perinuclear RNA binding protein) | 2 | no change with or without drug | 1.46 | 1.52
Bmp2k (BMP2 inducible kinase) | 1 | no change with or without drug | -0.45 | 1.18
Cbx2 (chromobox 2) | 1 | no change with or without drug | -0.22 | 0.51
Ap2a2 (adaptor-related protein complex 2, alpha 2 subunit) | 1 | no change with or without drug | 0.45 | 0.84
Ehmt1 (euchromatic histone methyltransferase 1) | 1 | low cell count with doxorubicin only (active) | -2.25 | 1.85
Mkrn3 (makorin, ring finger protein, 3) | 1 | no change with or without drug | -0.34 | -1.52
Opn4 (opsin 4 (melanopsin)) | 1 | no change with or without drug | 1.12 | 0.17
Myl10 (myosin, light chain 10, regulatory) | 1 | no change with or without drug | 0.22 | 0.17
Surf1 (surfeit gene 1) | 1 | no change with or without drug | 1.91 | 0.34
Ndufb8 (NADH:ubiquinone oxidoreductase subunit B8) | 1 | low cell count with and without drug | -2.02 | -3.54
Eef1e1 (eukaryotic translation elongation factor 1 epsilon 1) | 1 | low cell count with doxorubicin only (active) | -2.02 | -1.52
Stard6 (StAR related lipid transfer domain containing 6) | 1 | no change with or without drug | 1.12 | 1.52
Tgs1 (trimethylguanosine synthase 1) | 1 | no change with or without drug | 0 | 0.84
Bpifb9a (BPI fold containing family B, member 9A) | 1 | no change with or without drug | -0.56 | -0.17

3 entries already listed, sorted by “viability z-score without drug”, highest first:
Gene | pool no. | combined z-score class | viability z-score with doxorubicin | viability z-score without drug
Tfcp2l1 (transcription factor CP2-like 1) | 1 | no change with or without drug | 0.9 | 1.69
Ca1 (carbonic anhydrase 1) | 1 | no change with or without drug | -0.79 | -0.51
Dtymk (deoxythymidylate kinase) | 1 | no change with or without drug | -0.34 | -1.01
